Taken from: PubChem BioAssay AID1259405 (NCATS, 2018)
In all, the deposit lists about 50,000 reagents; this is a part drawn at random. In the full data, about 4,000 (8%) got an active call. 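Mouse siRNA library applied to hamster cells; one well for each siRNA.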 Entries without a mark were called inactive. The numbers tell different reagents against one gene apart.

Screen: 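Knock-downs that lift recombinant protein yield in hamster ovary cells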 (primary screen)
Cell system: Chinese hamster CHO-K1 ovary cells with stable secreted eGFP expression
Reagents: single siRNA against mouse genes, 0.8 pmol siRNA per well (2 µl of 400 nM stock)
Time to read-out: 3 days
Measurement: 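Per-well intracellular GFP measured by laser scanning cytometry, plus viability from ATP luminescence, each relative to plate median of non-targeting control wells, in %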
Reading the numbers: GFP, % of control: higher = more GFP per well, higher productivity; viability (ATP), % of control: higher = more viable cells (more ATP)
Active means: 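a knock-down is called active if GFP reaches 120% or more of non-targeting control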

Rps5 (ribosomal protein S5) #1 showed GFP, % of control 60.9; viability (ATP), % of control 39.8. Depletion of Rps5 (ribosomal protein S5) #2 resulted in: GFP, % of control 97.5; viability (ATP), % of control 76.2. Knock-down of Rps5 (ribosomal protein S5) #3 resulted in: GFP, % of control 102; viability (ATP), % of control 54.6. Fate1 (fetal and adult testis expressed 1) #1 showed GFP, % of control 67.5; viability (ATP), % of control 71.1. Against Fate1 (fetal and adult testis expressed 1) #2, the entry reads GFP, % of control 79.9; viability (ATP), % of control 67.1. Fate1 (fetal and adult testis expressed 1) #3 scored GFP, % of control 76.3; viability (ATP), % of control 106.

Lamtor2 (late endosomal/lysosomal adaptor, MAPK and MTOR activator 2) #1 showed GFP, % of control 98.9; viability (ATP), % of control 63.2. Lamtor2 (late endosomal/lysosomal adaptor, MAPK and MTOR activator 2) #2 showed GFP, % of control 101; viability (ATP), % of control 55.9. Lamtor2 (late endosomal/lysosomal adaptor, MAPK and MTOR activator 2) #3 showed GFP, % of control 70.6; viability (ATP), % of control 57.9. With knock-down of Tfpi2 (tissue factor pathway inhibitor 2) #1, the record shows GFP, % of control 82; viability (ATP), % of control 122. After knock-down of Tfpi2 (tissue factor pathway inhibitor 2) #2 the results were GFP, % of control 73.5; viability (ATP), % of control 91.2. Silencing of Tfpi2 (tissue factor pathway inhibitor 2) #3 gave: GFP, % of control 37.5; viability (ATP), % of control 21.7.

Depletion of Npas4 (neuronal PAS domain protein 4) #1 resulted in: GFP, % of control 76.7; viability (ATP), % of control 33.7. Knock-down of Npas4 (neuronal PAS domain protein 4) #2 resulted in: GFP, % of control 101; viability (ATP), % of control 86.3. For Npas4 (neuronal PAS domain protein 4) #3, the values are GFP, % of control 53.2; viability (ATP), % of control 42. Silencing of Chi3l1 (chitinase 3 like 1) #1 resulted in: GFP, % of control 75.1; viability (ATP), % of control 70.3. Knock-down of Chi3l1 (chitinase 3 like 1) #2 resulted in: GFP, % of control 65.9; viability (ATP), % of control 61.9. For Chi3l1 (chitinase 3 like 1) #3, the values are GFP, % of control 54.9; viability (ATP), % of control 48.8.

For Mup21 (major urinary protein 21) #1 the deposit lists GFP, % of control 51; viability (ATP), % of control 56.9. For Mup21 (major urinary protein 21) #2 the deposit lists GFP, % of control 72; viability (ATP), % of control 70.4. Mup21 (major urinary protein 21) #3 gave GFP, % of control 119; viability (ATP), % of control 82.5. Or52l1 (olfactory receptor family 52 subfamily L member 1) #1 showed GFP, % of control 85.1; viability (ATP), % of control 83.6. Against Or52l1 (olfactory receptor family 52 subfamily L member 1) #2 the deposit lists GFP, % of control 123 (active); viability (ATP), % of control 58. With knock-down of Or52l1 (olfactory receptor family 52 subfamily L member 1) #3, the record shows GFP, % of control 81.2; viability (ATP), % of control 84.7.

For Kdm4a (lysine (K)-specific demethylase 4A) #1, the entry reads GFP, % of control 0.524; viability (ATP), % of control 143. Depletion of Kdm4a (lysine (K)-specific demethylase 4A) #2 resulted in: GFP, % of control 75.1; viability (ATP), % of control 84.6. For Kdm4a (lysine (K)-specific demethylase 4A) #3 the deposit lists GFP, % of control 106; viability (ATP), % of control 84.8.

Laid out differently: 4 of the entries above
Rps5 (ribosomal protein S5) #2
- GFP, % of control: 97.5
- viability (ATP), % of control: 76.2

Rps5 (ribosomal protein S5) #3
- GFP, % of control: 102
- viability (ATP), % of control: 54.6

Fate1 (fetal and adult testis expressed 1) #1
- GFP, % of control: 67.5
- viability (ATP), % of control: 71.1

Fate1 (fetal and adult testis expressed 1) #2
- GFP, % of control: 79.9
- viability (ATP), % of control: 67.1
